Assay results from PMC11331099.
Results are given in words; binding and its absence hold for the method and conditions named. Binding seen in cells or lysates may run through a third protein. Binding can be weak; no strength is given. Values belong to the molecule of their own block, whether it stands above or below them.

Protein sequences, listed by entry. Tags and fused reporters are not part of them. Lines headed by an entry give the natural chain unless they say otherwise; changes in a name come on top.
UniProt P97546: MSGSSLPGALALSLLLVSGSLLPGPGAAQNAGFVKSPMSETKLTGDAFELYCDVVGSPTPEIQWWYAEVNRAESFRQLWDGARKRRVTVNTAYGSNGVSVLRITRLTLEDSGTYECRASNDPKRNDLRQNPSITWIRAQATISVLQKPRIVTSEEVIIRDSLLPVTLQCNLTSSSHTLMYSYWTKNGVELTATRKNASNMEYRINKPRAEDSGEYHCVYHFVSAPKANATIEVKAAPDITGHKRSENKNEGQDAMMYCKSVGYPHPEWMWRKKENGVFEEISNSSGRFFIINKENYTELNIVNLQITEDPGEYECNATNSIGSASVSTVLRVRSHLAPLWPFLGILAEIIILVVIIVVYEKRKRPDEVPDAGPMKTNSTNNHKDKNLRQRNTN
UniProt P11506: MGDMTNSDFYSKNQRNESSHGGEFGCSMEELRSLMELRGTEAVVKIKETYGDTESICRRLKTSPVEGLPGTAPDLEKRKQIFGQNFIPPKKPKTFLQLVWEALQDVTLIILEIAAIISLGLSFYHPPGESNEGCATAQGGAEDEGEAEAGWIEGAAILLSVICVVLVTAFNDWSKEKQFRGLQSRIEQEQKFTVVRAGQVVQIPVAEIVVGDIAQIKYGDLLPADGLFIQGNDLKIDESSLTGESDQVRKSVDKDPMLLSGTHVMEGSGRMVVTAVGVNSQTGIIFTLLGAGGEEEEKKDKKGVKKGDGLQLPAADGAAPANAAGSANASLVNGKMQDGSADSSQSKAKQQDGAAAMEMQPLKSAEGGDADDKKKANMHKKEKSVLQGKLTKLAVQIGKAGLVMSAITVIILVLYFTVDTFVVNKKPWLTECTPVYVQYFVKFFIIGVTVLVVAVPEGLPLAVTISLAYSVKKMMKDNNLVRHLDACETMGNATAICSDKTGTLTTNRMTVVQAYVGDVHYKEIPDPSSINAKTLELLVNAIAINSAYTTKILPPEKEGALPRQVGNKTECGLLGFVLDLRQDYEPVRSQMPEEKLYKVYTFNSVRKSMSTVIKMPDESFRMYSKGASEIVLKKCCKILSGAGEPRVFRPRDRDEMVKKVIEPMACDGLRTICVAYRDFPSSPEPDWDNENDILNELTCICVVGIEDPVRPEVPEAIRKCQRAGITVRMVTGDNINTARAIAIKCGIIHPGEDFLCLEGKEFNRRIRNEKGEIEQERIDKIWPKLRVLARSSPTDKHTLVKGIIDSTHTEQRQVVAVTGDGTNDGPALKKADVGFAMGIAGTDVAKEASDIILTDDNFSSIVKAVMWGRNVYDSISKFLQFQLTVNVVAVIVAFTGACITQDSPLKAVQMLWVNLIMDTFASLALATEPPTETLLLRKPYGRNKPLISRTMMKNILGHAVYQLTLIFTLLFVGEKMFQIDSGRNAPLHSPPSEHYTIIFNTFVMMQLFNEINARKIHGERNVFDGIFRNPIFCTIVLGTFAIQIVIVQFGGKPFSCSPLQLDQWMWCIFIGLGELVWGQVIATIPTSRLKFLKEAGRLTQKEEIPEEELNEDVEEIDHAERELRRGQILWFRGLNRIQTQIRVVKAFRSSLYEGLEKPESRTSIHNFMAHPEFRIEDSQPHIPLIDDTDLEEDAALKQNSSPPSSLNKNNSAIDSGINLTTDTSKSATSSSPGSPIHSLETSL

What was measured:
[1] = biological target: Neuroplastin (rat (endogenous in INS-1 832/13)) (UniProt P97546); experiment: co-IP; endogenous proteins in INS-1 832/13 cells; TRAF6 quantified as precipitated with NPTN; Nptn KO cells as control; for TRAF6, cells with or without cytokine mix (5 ng/mL IL-1β + 100 ng/mL IFNγ) for 6 h
[2] = biological target: Neuroplastin (rat (endogenous in INS-1 832/13)) (UniProt P97546); experiment: as above; remark: listed apart in the source
[3] = biological target: Neuroplastin (rat (endogenous in INS-1 832/13)) (UniProt P97546); experiment: co-IP; endogenous NPTN and TRAF6 in Nptn WT INS-1 832/13 cells treated with or without cytokine mix (5 ng/mL IL-1β + 100 ng/mL IFNγ) and MANF proteins (5 µg/mL) for 6 h; TRAF6 precipitated with NPTN quantified

binding [1]: binds
Molecule: plasma membrane ATPase isoform PMCA2 (from UniProt P11506 1-1243)

binding [2]: binds
binding [3]: binds
B1: TNF receptor-associated factor 6 (protein, UniProt B5DF45 1-530)
chain: MSLLNCENSCASSQSSSDCCAAMANSCSAAMKDDSVSGCVSTGNLSSSFMEEIQGYDVEFDPPLESKYECPICLMALREAVQTPCGHRFCKACITKSIRDAGHKCPVDNEILLENQLFPDNFAKREILSLTVKCPNKGCVQKMELRHLEDHQVHCEFALVICPQCQRFFQKCQINKHIIEDCPRRQVSCVNCAVPMPYEEKEIHDQSCPLANIICEYCGTILIREQMPNHYDLDCPTAPVPCTFSVFGCHEKMQRNHLARHLQENTQLHMRLLAQAVHNVNLSLRPCDASSPSRGCRPEDPNYEETVKQLEGRLVRQDHQIRELTAKMETQSMHVSELKRTIRSLEDKVAEMEAQQCNGIYIWKIGNFGMHLKSQEEERPVVIHSPGFYTGRPGYKLCMRLHLQLPTAQRCANYISLFVHTMQGEYDSHLPWPFQGTIRLTILDQSEAVIRQNHEEVMDAKPELLAFQRPTIPRNPKGFGYVTFMHLEALRQGTFIKDDTLLVRCEVSTRFDMGGLRKEGFQPRSTDAGV
